Paper PMC10789646
These are yes or no findings as the source states them, for the method shown. In cells and extracts the contact can be indirect. Some results given as binding are weak or reduced against the parent protein; the word gives no strength. Sequences can lack the tags named with a protein.

Chains of the proteins cited; added tags and fusions are not shown.
UniProt P55201: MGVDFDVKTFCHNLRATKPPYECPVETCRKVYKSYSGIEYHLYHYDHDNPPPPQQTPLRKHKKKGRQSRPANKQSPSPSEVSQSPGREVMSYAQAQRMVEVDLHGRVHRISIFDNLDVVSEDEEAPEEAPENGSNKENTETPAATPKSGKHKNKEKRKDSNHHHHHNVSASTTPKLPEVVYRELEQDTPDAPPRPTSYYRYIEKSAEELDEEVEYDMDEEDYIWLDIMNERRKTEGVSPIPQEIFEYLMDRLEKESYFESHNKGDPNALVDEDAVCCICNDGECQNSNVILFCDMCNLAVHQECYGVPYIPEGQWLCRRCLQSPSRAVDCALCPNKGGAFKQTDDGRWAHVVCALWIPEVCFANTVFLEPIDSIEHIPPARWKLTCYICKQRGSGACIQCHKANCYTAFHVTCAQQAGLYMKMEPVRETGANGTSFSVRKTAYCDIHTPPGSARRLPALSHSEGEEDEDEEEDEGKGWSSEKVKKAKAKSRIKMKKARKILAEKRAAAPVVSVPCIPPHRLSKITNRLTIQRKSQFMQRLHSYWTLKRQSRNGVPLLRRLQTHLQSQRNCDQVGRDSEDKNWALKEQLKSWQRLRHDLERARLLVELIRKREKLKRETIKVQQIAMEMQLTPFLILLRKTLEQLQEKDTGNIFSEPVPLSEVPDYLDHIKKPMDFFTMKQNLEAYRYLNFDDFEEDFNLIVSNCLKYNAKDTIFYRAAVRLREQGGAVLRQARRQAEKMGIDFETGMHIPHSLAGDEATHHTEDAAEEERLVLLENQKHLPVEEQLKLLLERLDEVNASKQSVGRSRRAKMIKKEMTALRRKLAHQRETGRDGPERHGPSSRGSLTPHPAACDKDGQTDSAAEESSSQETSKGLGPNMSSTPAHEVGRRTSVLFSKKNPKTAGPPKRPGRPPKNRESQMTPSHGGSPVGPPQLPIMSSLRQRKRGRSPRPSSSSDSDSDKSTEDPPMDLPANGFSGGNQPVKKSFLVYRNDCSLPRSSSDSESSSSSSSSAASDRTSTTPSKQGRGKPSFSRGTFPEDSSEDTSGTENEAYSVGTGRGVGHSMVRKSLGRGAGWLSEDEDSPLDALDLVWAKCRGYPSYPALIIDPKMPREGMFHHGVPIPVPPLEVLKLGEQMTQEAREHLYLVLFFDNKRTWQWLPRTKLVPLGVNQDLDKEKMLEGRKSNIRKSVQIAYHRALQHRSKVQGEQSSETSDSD

Biological target: T1, Myc-tagged ILF3 (UniProt Q12906)
T1 sequence: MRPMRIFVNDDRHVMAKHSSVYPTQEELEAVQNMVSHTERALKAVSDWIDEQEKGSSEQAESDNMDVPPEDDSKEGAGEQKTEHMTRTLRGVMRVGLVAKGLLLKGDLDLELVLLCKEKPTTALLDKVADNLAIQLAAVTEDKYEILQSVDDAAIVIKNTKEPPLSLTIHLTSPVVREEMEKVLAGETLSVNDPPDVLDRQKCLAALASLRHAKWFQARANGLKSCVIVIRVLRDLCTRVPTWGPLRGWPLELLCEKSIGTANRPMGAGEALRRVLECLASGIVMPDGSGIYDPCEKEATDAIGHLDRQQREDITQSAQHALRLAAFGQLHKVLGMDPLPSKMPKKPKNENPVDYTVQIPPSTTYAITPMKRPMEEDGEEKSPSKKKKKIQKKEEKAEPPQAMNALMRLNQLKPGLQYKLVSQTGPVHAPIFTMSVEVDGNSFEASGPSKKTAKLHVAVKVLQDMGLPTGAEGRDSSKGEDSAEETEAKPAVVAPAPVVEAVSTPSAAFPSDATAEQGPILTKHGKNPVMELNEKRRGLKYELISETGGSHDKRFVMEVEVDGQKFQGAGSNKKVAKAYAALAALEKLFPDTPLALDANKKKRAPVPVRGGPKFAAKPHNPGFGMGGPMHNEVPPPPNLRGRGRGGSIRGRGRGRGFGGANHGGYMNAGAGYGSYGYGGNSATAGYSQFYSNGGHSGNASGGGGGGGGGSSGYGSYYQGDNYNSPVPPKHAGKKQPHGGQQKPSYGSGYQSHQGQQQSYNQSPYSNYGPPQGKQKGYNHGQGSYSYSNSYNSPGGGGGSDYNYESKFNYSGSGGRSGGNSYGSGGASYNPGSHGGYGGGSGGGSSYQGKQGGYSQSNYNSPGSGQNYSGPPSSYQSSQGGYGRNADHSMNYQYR
Assay: co-IP; Huh-7 cells cotransfected with V5-BRPF1 and Myc-ILF3, trichostatin A treated; anti-V5 or anti-Myc on Dynabeads Protein G; with and without 5 μM PFI-4; Western blot

## V5-tagged BRPF1 (from UniProt P55201 1-1214)
  binding: binds
